The other results are listed elsewhere or left out. These are further read-outs of the screen, such as a control signal, another cell line or another target. No call is given for them. Compounds called inactive in the main read-out are mostly missing here. The note in brackets gives the kind of curve behind each potency; many fits are weak.
Test: qHTS Assay for Lipid Storage Modulators in Drosophila S3 Cells;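 on cell number change: cells counted by Cell Tracker Red CMTPX staining in the red channel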
Details: BODIPY lipid droplet fluorescence, 18-24 h; for cell number change: measured here: cell count max response, cells fed with added oleic acid
How it was run: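 Laser-scanning cytometry quantifies lipid droplet accumulation (500–530 nm total intensity; droplet/cell object ratio) in oleic acid-fed (400 uM added) Drosophila S3 cells treated with a concentration series. 20 uM Triacsin C defined 100% inhibition.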

[1] = measured here: lipid fluorescence (Fed channel) AC50, cells fed with added oleic acid
[2] = measured here: cell number channel AC50, cells fed with added oleic acid

SMILES	AC50 [1]	cell number change [%]	AC50 [2]
CCOc1ccc2oc(C(=O)N(CC)CC(=O)Nc3c(F)cccc3F)c(C)c2c1	0.116 µM [rising, full curve, poor fit]	–	–
CCOC(=O)N1CCN(C(=O)CN2C(=O)NC(c3ccccc3)(c3ccccc3)C2=O)CC1	–	29.5	–
COC(=O)c1ccc(OCC(O)CNCC(c2ccc(OC)cc2)N(C)C)c(OC)c1 (configuration not stated)	–	5.88	–
O=C(CN1CCOCC1)Nc1ccc2c(c1)OCO2	–	63.9	–
Cc1ccc2nc3c(c(N)c2c1)CCN3c1ccccc1	0.0366 µM [rising, full curve, poor fit]	-11.6	–
CCc1nnc(NC(=O)c2ccc3nc(CC)c(CC)nc3c2)s1	–	-3.92	6.51 µM [falling, single point]
CC1=NN(c2nc(-c3ccc(C)cc3)cs2)C(=O)C1N=Nc1ccc2ccccc2c1 (configuration not stated)	6.51 µM [falling, partial curve, poor fit]	0.668	6.51 µM [falling, single point]
O=C(CSc1nnc(CNC(=O)c2cccs2)o1)Nc1ccccc1C(F)(F)F	–	11.3	–
Cc1cc(C(=O)N2CCCC(CO)(Cc3ccc(F)cc3)C2)c(C)o1 (configuration not stated)	29.1 µM [falling, single point]	18.2	0.0731 µM [rising, full curve, poor fit]
O=C1/C(=C/c2ccncc2)CCC/C1=C\c1ccncc1	18.4 µM [falling, single point]	-64.5	18.4 µM [falling, single point]
Nn1c(SCC(=O)Nc2ccc(S(N)(=O)=O)cc2)nnc1-c1ccco1	–	-2.37	–
CCc1ccc(/C=N/Nc2ncnc3nc[nH]c23)cc1	0.58 µM [falling, full curve, poor fit]	-15.2	–
COc1cc(CN2CC(=O)N(c3ccc(C)c(C)c3)C2=S)cc(OC)c1OC	3.66 µM [rising, single point]	4.55	–
COCCCNCCCCOc1ccc(Br)cc1Cl	–	-9.36	–
Cc1ccc(C(=O)NC(=S)Nc2ccccc2C)cc1	–	5.5	–
Cc1cc(C)c2cc(C(=O)Nc3ccc(C)c(F)c3)[nH]c2c1	20.6 µM [falling, single point]	-31.2	20.6 µM [falling, single point]
COc1ccc(CN(C)C(=O)c2ccc(Cl)c(S(=O)(=O)NCc3cccnc3)c2)cc1F	6.51 µM [falling, single point]	-24.7	–
O=C(c1cccs1)N1CCN(S(=O)(=O)c2cccs2)CC1	0.82 µM [falling, full curve]	-3.25	0.206 µM [falling, full curve]
CCN1CCN(C(=S)Nc2ccc3nc(N4CCN(C)CC4)cc(C)c3c2)CC1	6.51 µM [rising, single point]	–	4.11 µM [rising, single point]
N#CC(c1ccncc1)(c1ncc(C(F)(F)F)cc1Cl)N1CCOCC1 (configuration not stated)	–	-41.5	–

SMILES	AC50 [1]	cell number change [%]	AC50 [2]
COc1cc(C(=O)NCc2nnc(SCC(=O)N3CCCc4ccccc43)o2)cc(OC)c1OC	–	-7.87	3.66 µM [falling, single point]
CN(C(=O)CSc1nncn1-c1ccccc1)c1ccccc1	–	-0.833	–
COc1cc2c(cc1OC)CN(CCOc1ccc(Br)cc1)CC2	–	43.2	29.1 µM [rising, single point]
CCOC(=O)CSc1nc(C2CC2)nc2ccccc12	29.1 µM [falling, single point]	–	–
COc1ccc(CCNC(=O)CCCc2ccccc2)cc1OC	0.00517 µM [falling, full curve]	-21.9	–
C=C(C)C1CC=C(C)/C(=N/NC(=O)c2cccc([N+](=O)[O-])c2)C1 (configuration not stated)	–	32.6	11.6 µM [rising, partial curve, poor fit]
O=C(CN(C(=O)CCC(=O)Nc1nccs1)c1cccc(F)c1)NCc1ccc2c(c1)OCO2	29.1 µM [rising, single point]	77	29.1 µM [rising, single point]
CCCOc1ccc(/C=N/Nc2ccccc2[N+](=O)[O-])c(O)c1	0.13 µM [rising, partial curve]	-23.7	–
O=C(NC1C2CC3CC(C2)CC1C3)c1ccc(Br)o1 (configuration not stated)	29.1 µM [falling, single point]	-40.3	18.4 µM [falling, partial curve, poor fit]
CS(=O)(=O)N(CC(=O)Nc1ccc(F)cc1)C1CCCCC1	5.62 µM [rising, single point]	21.1	–
CC(=O)Nc1ccc2ccccc2c1	29.1 µM [falling, single point]	–	–
CN(C)C1=NC[C@H](Cc2ccccc2)N1CCc1ccc(F)cc1	–	17	–
Cc1onc(-c2ccccc2)c1C(=O)N1CCN(S(=O)(=O)c2ccc(Cl)cc2)CC1	6.51 µM [rising, single point]	15.4	–
O=C(NCc1ccc(Cl)cc1)c1ccc(COCC(F)(F)F)o1	0.58 µM [falling, single point]	–	0.13 µM [falling, full curve, poor fit]
C=CCn1c(C)cc(-c2csc(NC(=O)C3=COCCO3)n2)c1C	–	0.673	–
Cc1cc(/C=N/NC(=O)c2ccc(O)cc2)c(C)n1C1CC1	–	-39.8	1.16 µM [falling, full curve]
CCN(CC)C(=O)CSc1nc2c(sc(=S)n2-c2ccccc2)c(=O)n1Cc1ccco1	1.64 µM [rising, partial curve]	91.9	1.16 µM [rising, full curve]
CCOCC(=O)Nc1c(C(=O)Nc2ccc(OC)cc2OC)oc2ccccc12	0.92 µM [rising, partial curve]	–	0.92 µM [rising, partial curve]
Cc1ccc(S(=O)(=O)N2CCN(C(=O)C3CCN(C(=O)c4ccccc4C)CC3)CC2)cc1C	29.1 µM [rising, single point]	23.2	–
Cc1cccc(Oc2coc3cc(OC(=O)c4cc5ccccc5oc4=O)ccc3c2=O)c1	0.092 µM [rising, full curve, poor fit]	-16.6	–

SMILES	AC50 [1]	cell number change [%]	AC50 [2]
CN(C)/C=C(\C#N)C(N)=C(C#N)C#N	–	46.4	16.4 µM [rising, single point]
CCc1cc(C(=O)c2ccc(OC)cc2)c(NC(=O)CN2CCCCC2)s1	0.731 µM [falling, single point]	-14.5	–
Cc1cccc(C(=O)NC(C)C(c2cccs2)N2CCOCC2)c1 (configuration not stated)	6.51 µM [rising, single point]	16.7	–
CCC1CCCCN1C(=O)CSc1nnc(-c2cccs2)o1 (configuration not stated)	–	-1.56	–
CC(C)C[C@H](NC(=O)OC(C)(C)C)C(=O)N1CCC(C(=O)N[C@@H](Cc2c[nH]c3ccccc23)C(=O)O)CC1	29.1 µM [rising, single point]	10.4	–
CCCC(=O)OCC(=O)Nc1ccc2c(c1)OCO2	0.103 µM [rising, partial curve, poor fit]	–	0.13 µM [rising, single point]
CC(=O)Oc1ccc2cc(-c3nc4ccccc4n3C)c(=O)oc2c1	–	2.53	–
COc1ccc2nc(NC(=O)Nc3ccccc3)sc2c1	32.6 µM [falling, partial curve]	-44.5	23.1 µM [falling, partial curve, poor fit]
CCn1cc(Cl)c(C(=O)N2N=C(c3ccc4ccccc4c3)CC2c2ccccc2O)n1 (configuration not stated)	18.4 µM [falling, single point]	-51.8	16.4 µM [falling, single point]
O=C(Nc1ccncc1)c1ccc(Br)cc1	29.1 µM [rising, single point]	17.9	–
COCCn1c(-c2ccc3ccccc3c2)nc2c1c(=O)[nH]c(=O)n2CC(C)C	–	7.66	–
Cc1nn(CC(=O)OCC(=O)NC(C)c2ccccc2)c(C)c1[N+](=O)[O-] (configuration not stated)	29.1 µM [rising, partial curve]	130	23.1 µM [rising, partial curve, poor fit]
COc1cc(/C=C/C(=O)OC(C)C(=O)NC2CCCCC2C)cc(Cl)c1OC (configuration not stated)	–	-50	0.731 µM [falling, full curve]
Cc1n[nH]c(C)c1C(=O)CC1(O)C(=O)N(CCc2ccccc2)c2ccc(Cl)cc21 (configuration not stated)	2.31 µM [rising, partial curve]	–	–
COc1ccccc1CNC(=O)c1cc(-c2ccccc2)n(Cc2cc(C)no2)n1	6.51 µM [falling, single point]	-5.46	–
CSc1ccc(/C=N/N2CCN(Cc3ccc(Cl)cc3)CC2)cc1	29.1 µM [rising, partial curve]	27	–
CCOC(=O)C1CCN(C(=O)C2(NC(=O)Nc3cccc(F)c3)CCCCC2)CC1	8.2 µM [falling, partial curve]	-46.8	1.3 µM [falling, partial curve]
CCOC(=O)C(=N/O)/C(C)=N/NC(C)=O	23.1 µM [falling, single point]	-31.7	23.1 µM [falling, single point]
Cc1cccc(-n2cc(CN(C)Cc3nccn3C)c(-c3cccc(F)c3)n2)c1	29.1 µM [falling, single point]	-34.3	29.1 µM [falling, single point]
CCOc1ccc2nc(NC(=O)C3CCCN(S(=O)(=O)c4c(C)noc4C)C3)sc2c1 (configuration not stated)	23.1 µM [falling, single point]	-40.2	23.1 µM [falling, single point]

A run of entries from the list above:
SMILES	AC50 [1]	cell number change [%]	AC50 [2]
Cc1cccc(Oc2coc3cc(OC(=O)c4cc5ccccc5oc4=O)ccc3c2=O)c1	0.092 µM [rising, full curve, poor fit]	-16.6	–
CN(C)/C=C(\C#N)C(N)=C(C#N)C#N	–	46.4	16.4 µM [rising, single point]
CCc1cc(C(=O)c2ccc(OC)cc2)c(NC(=O)CN2CCCCC2)s1	0.731 µM [falling, single point]	-14.5	–
Cc1cccc(C(=O)NC(C)C(c2cccs2)N2CCOCC2)c1 (configuration not stated)	6.51 µM [rising, single point]	16.7	–
